{"sequences": {"note": "The chains behind the UniProt entries cited, without tags or fusion partners. Residues count along the entry.", "UniProt Q9JXV4, residues 20-274": "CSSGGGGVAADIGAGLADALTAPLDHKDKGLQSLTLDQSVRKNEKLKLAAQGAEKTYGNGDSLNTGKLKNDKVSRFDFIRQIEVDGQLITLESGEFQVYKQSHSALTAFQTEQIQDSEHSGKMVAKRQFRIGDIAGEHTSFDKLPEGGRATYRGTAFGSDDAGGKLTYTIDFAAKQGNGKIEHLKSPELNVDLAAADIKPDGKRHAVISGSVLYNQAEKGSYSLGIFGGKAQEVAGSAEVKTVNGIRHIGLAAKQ", "UniProt Q9JXK7, residues 24-362": "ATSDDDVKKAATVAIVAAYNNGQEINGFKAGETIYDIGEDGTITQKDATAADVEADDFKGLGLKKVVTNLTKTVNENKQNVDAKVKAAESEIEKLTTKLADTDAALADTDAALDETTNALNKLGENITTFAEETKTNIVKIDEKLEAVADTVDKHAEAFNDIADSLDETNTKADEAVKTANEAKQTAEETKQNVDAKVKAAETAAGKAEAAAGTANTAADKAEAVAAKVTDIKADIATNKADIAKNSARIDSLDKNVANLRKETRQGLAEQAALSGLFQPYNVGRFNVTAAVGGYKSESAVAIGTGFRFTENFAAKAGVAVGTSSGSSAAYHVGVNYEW", "UniProt P26022, residues 18-381": "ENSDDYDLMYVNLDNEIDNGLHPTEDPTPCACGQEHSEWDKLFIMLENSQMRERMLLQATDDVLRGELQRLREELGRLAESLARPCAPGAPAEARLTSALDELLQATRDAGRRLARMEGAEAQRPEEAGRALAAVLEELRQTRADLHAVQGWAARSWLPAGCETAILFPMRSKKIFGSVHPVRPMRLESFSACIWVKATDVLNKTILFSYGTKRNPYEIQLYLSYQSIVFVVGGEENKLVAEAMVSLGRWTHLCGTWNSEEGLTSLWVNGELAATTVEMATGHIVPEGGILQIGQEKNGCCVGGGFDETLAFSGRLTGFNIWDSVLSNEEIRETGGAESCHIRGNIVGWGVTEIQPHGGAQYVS"}, "source": "paper PMC4364741", "binders": {"B1": {"name": "Human C reactive Protein (protein, UniProt P02741 19-224)", "chain": "QTDMSRKAFVFPKESDTSYVSLKAPLTKPLKAFTVCLHFYTELSSTRGYSIFSYATKRQDNEILIFWSKDIGYSFTVGGSEILFEVPEVTVAPVHICTSWESASGIVEFWVDGKPRVRKSLKKGYTVGAEASIILGQEQDSFGGNFEGSQSLVGDIGNVNMWDFVLSPDEINTIYLGGPFSPNVLNWRALKYEVQGEVFTKPQLWP"}, "B2": {"name": "GNA2132 (Neisserial heparin binding antigen, NHBA) (protein, UniProt Q7DD37 18-488)", "chain": "CGGGGGGSPDVKSADTLSKPAAPVVSEKETEAKEDAPQAGSQGQGAPSAQGSQDMAAVSEENTGNGGAVTADNPKNEDEVAQNDMPQNAAGTDSSTPNHTPDPNMLAGNMENQATDAGESSQPANQPDMANAADGMQGDDPSAGGQNAGNTAAQGANQAGNNQAAGSSDPIPASNPAPANGGSNFGRVDLANGVLIDGPSQNITLTHCKGDSCSGNNFLDEEVQLKSEFEKLSDADKISNYKKDGKNDKFVGLVADSVQMKGINQYIIFYKPKPTSFARFRRSARSRRSLPAEMPLIPVNQADTLIVDGEAVSLTGHSGNIFAPEGNYRYLTYGAEKLPGGSYALRVQGEPAKGEMLAGAAVYNGEVLHFHTENGRPYPTRGRFAAKVDFGSKSVDGIIDSGDDLHMGTQKFKAAIDGNGFKGTWTENGSGDVSGKFYGPAGEEVAGKYSYRPTDAEKGGFGVFAGKKEQD"}}, "key": {"[1]": {"biological_target": "GNA1870 (factor H binding protein, fHbp) (Neisseria meningitidis) (UniProt Q9JXV4)", "experiment": "ELISA; plastic wells coated with the recombinant Nm proteins (1 μg/well), incubated with human or murine PTX3, human CRP or SAP (22 pmoles) for 1 h at 37°C, then antibodies; A450; both purified"}, "[2]": {"biological_target": "T1, GNA2132 (Neisserial heparin binding antigen, NHBA) (Neisseria meningitidis) (UniProt Q7DD37)", "T1 sequence": "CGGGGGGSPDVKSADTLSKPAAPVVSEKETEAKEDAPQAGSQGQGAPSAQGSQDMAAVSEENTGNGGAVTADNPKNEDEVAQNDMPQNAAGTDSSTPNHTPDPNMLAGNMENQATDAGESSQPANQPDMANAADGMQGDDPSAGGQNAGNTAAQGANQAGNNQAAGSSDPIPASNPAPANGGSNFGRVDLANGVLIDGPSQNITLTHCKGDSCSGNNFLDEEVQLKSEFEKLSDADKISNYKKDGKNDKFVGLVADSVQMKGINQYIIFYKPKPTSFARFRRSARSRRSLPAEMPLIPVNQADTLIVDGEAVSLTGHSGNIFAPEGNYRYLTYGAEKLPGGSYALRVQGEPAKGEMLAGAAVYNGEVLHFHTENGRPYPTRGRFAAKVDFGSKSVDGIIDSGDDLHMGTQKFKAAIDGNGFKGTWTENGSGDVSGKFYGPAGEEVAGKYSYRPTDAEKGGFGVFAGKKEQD", "experiment": "ELISA; plastic wells coated with the recombinant Nm proteins (1 μg/well), incubated with human or murine PTX3, human CRP or SAP (22 pmoles) for 1 h at 37°C, then antibodies; A450; both purified"}, "[3]": {"biological_target": "T2, Genome-derived Neisserial antigen GNA0667 (Neisseria meningitidis) (UniProt Q9K0E2)", "T2 sequence": "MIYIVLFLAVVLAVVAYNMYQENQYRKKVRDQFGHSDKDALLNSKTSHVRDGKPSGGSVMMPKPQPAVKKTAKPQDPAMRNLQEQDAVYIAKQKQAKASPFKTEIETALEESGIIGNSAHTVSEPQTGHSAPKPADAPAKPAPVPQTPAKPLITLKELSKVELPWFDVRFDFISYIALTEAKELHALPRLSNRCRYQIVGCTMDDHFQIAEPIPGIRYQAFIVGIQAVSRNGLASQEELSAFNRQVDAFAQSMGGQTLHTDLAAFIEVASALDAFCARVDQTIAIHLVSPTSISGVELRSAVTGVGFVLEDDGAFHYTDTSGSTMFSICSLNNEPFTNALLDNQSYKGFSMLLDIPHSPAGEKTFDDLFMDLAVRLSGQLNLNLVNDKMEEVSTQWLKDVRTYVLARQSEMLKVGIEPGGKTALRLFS", "experiment": "ELISA; plastic wells coated with the recombinant Nm proteins (1 μg/well), incubated with human or murine PTX3, human CRP or SAP (22 pmoles) for 1 h at 37°C, then antibodies; A450; both purified"}, "[4]": {"biological_target": "Genome-derived Neisserial antigen GNA1220 (Neisseria meningitidis) (UniProt Q7DDD7)", "experiment": "ELISA; plastic wells coated with the recombinant Nm proteins (1 μg/well), incubated with human or murine PTX3, human CRP or SAP (22 pmoles) for 1 h at 37°C, then antibodies; A450; both purified"}, "[5]": {"biological_target": "Genome-derived Neisserial antigen GNA1994 (Neisseria meningitidis) (UniProt Q9JXK7)", "experiment": "ELISA; plastic wells coated with the recombinant Nm proteins (1 μg/well), incubated with human or murine PTX3, human CRP or SAP (22 pmoles) for 1 h at 37°C, then antibodies; A450; both purified"}, "[6]": {"biological_target": "Recombinant human long pentraxin 3 (PTX3) (human) (UniProt P26022)", "experiment": "ELISA; plates coated with human PTX3 (1 μg/well), incubated with Nm antigens (1 μg/well), revealed with specific polyclonal antibodies (1:1000) and HRP-linked secondary antibody; A450; both purified"}}, "note": "Results are given in words; binding and its absence hold for the method and conditions named.", "data": [{"binder": "B1", "values": [{"measurement": "binding", "setting": "[1]", "value": "no binding (tested: 22 pmoles)"}, {"measurement": "binding", "setting": "[2]", "value": "no binding (tested: 22 pmoles)"}, {"measurement": "binding", "setting": "[3]", "value": "no binding (tested: 22 pmoles)"}, {"measurement": "binding", "setting": "[4]", "value": "no binding (tested: 22 pmoles)"}, {"measurement": "binding", "setting": "[5]", "value": "no binding (tested: 22 pmoles)"}]}, {"binder": "B2", "values": [{"measurement": "binding", "setting": "[6]", "value": "no binding (tested: 1 μg/well)"}]}]}
